According to paper PMC12040169 (PLOS Biology, 2025):
The list shows a part of the results.

tested on: T1, CTL2-GFP (C. trachomatis L2/434/Bu, GFP-expressing); set-up: species or system HeLa; Intracellular C. trachomatis growth in HeLa cells, bulk GFP fluorescence relative to DMSO; details: bulk GFP, single well; 28.5 h, 10 µM; inhibitor
T1 construct: L2/434/Bu, GFP-expressing

Structure (SMILES)	% of control remaining [%]
CCS(=O)(=O)N1CCN(S(=O)(=O)c2ccccc2[N+](=O)[O-])CC1 [CBK264289]	137.16
Cc1cc(NS(=O)(=O)c2cccc3cccnc23)n(C)n1 [CBK067242]	107.849
O=C1CC(c2ccccc2O)CC2=C1C=Nc1ccccc1N2 (stereo not drawn) [CBK270287]	126.312
CN1CCC2(CC1)OCc1cc(-c3cccnc3)ccc1O2 [CBK061020]	97.9207
O=C1NC2(CCCCC2)C(=O)N1c1ccc(F)cc1F [CBK281945]	119.329
CS(=O)(=O)N1CCN(c2ccc(NC(=O)COc3ccc4ccccc4c3)cc2)CC1 [CBK266450]	144.968
O=C(CCCOc1ccc(Cl)cc1Cl)Nc1ccc(O)cc1C(=O)O [CBK131688]	133.072
Oc1ccc(-c2cncc(Nc3ccc(Br)c(Cl)c3)n2)cc1 [CBK107806]	84.1175
O=C(CN1C(=O)c2ccccc2C1=O)Nc1cccc(-c2cnc3ccccc3n2)c1 [CBK268614]	70.1217
COc1cccc(CC(=O)N2[C@H](Cc3ccccc3)C[C@@H]3NCCCCC[C@H]32)c1 [CBK286030]	123.654
O=C(NCCN1CCCC1)c1ccc(Nc2cncc(-c3ccc(O)cc3)n2)c(Cl)c1 [CBK122666]	116.524
COC(=O)c1ccccc1NC(=O)CNS(=O)(=O)c1c(C)cc(C)cc1C [CBK265974]	103.788
COc1cc(C(=O)Nc2nc(Cc3n[nH]c(=S)n3C)cs2)ccc1C [CBK296683]	146.22
Cc1nc2c(c(N3CCN(c4ccc(O)cc4)CC3)n1)CN(Cc1ccccc1)CC2 [CBK286177]	149.875
CCOC(=O)N1CCN(C2CCCN(Cc3c(C)nn(C)c3Cl)C2)CC1 (stereo not drawn) [CBK306853]	107.223
Oc1ccc(/C=N/Nc2nnn[nH]2)c(O)c1 [CBK260972]	100
O=C(CCCc1ccccc1)Nc1scc2c(=O)oc3ccccc3c12 [CBK265435]	100
Cc1cc(C)c2c(N)nc(N)nc2n1 [CBK025968]	113.378
O=C(CCCn1cccn1)N1CCOC(c2ccc(Cl)cc2)C1 (stereo not drawn) [CBK304643]	125.229
C=CCNC(=O)N1CCC2(CC1)OCCc1c2n(C)c2ccccc12 [CBK047354]	126.142
O=C(c1cccs1)N1Cc2ccccc2OC2(CCOCC2)C1 [CBK284942]	113.471
Cc1cc2ncc3c(n2n1)CC1CCC3N1Cc1ccc(C)o1 (stereo not drawn) [CBK284412]	102.917
CCS(=O)(=O)c1ccc(O)c(NS(=O)(=O)c2cc(C(=O)O)ccc2Cl)c1 [CBK297531]	129.574
COCCn1c(=O)[nH]c2ncc(-c3ccc4c(c3)OCO4)nc21 [CBK064164]	99.5322
CN(CCO)S(=O)(=O)c1ccccc1[N+](=O)[O-] [CBK261457]	83.8826
CC(Sc1nc2cc(Cl)ccc2c(=O)n1CC1CCCO1)C(N)=O (stereo not drawn) [CBK305935]	92.7425

Exported bar-delimited: part of the list above
Structure (SMILES) | % of control remaining [%]
CS(=O)(=O)N1CCN(c2ccc(NC(=O)COc3ccc4ccccc4c3)cc2)CC1 [CBK266450] | 144.968
O=C(CCCOc1ccc(Cl)cc1Cl)Nc1ccc(O)cc1C(=O)O [CBK131688] | 133.072

(further entries)

Structure (SMILES)	% of control remaining [%]
CCOc1ccc(NC(=O)C(C)O)c(NC(=O)c2ccccc2Cl)c1 (stereo not drawn) [CBK269678]	103.545
CC1CN(C2CCN(S(=O)(=O)c3cccs3)CC2)C(=O)O1 (stereo not drawn) [CBK044072]	93.3954
COc1cc2nnnn2c(-c2ccccc2)n1 [CBK026189]	141.446
CC(c1ccncn1)N(C)C(=O)NCc1cccc(CN(C)C)c1 (stereo not drawn) [CBK307667]	119.989
FC(F)(F)c1cccc(-c2nccnc2NCCCN2CCOCC2)c1 [CBK037288]	166.7
CNS(=O)(=O)c1cc(C(=O)NCc2ccccc2)ccc1OC [CBK270277]	109.066
O=S(=O)(c1ccc(-c2ccccc2)cc1)N1CCCN(Cc2cccnc2N2CCOCC2)CC1 [CBK063127]	82.8625
CSc1nnc(-c2ccco2)n1-c1cccc(Cl)c1C [CBK067723]	76.1087
O=C(O)Cc1ccc(NC(=S)Nc2cccc(Cl)c2Cl)cc1 [CBK267064]	129.55
CC(CN(C)C(=O)c1cn[nH]c1C1CCNC1)Oc1ccc(Cl)c(Cl)c1 (stereo not drawn) [CBK304786]	118.774
CC(C)n1c(=O)n(CC(=O)NCc2cccs2)c2cccnc21 [CBK283699]	139.074
COc1cc(C(=O)N2CCC3(CC2)CC(=O)c2cc(-c4cccc(C)c4)ccc2O3)cc(OC)c1C [CBK170341]	106.387
Cc1[nH]c2ccc(Cl)cc2c1CC(=O)N(C)CCN(C)C [CBK282700]	127.807
Cn1c(=O)n(C)c2cc(CNC(=O)CC3COCCN3)ccc21 (stereo not drawn) [CBK307252]	120.89
CN1CCC(=NNC(=O)C(=O)NCc2ccco2)CC1 [CBK262341]	119.76
Cc1scc(C(=O)NCc2ccccn2)c1-c1ccccc1 [CBK268107]	112.101
Cc1ccc2c(c1)C(=O)CC1(CCN(C(=O)OC(C)(C)C)CC1)O2 [CBK283599]	93.1026
O=C(O)C1=NN(c2ccccc2)C(=O)CC1 [CBK270176]	153.874
Cc1ccc(-c2nccnc2OCc2ccccn2)c(C)c1 [CBK106979]	100
COc1nc(Cl)nc(Oc2ccc(F)cc2)n1 [CBK011279]	99.4055
Cc1cc(NC(=O)C2CCN(C(=O)c3cnc(N)c(Cl)c3)CC2)no1 [CBK305545]	109.032
O=C(CN1C(=O)c2ccccc2C1=O)Nc1cc(C(=O)O)cc(C(=O)O)c1 [CBK262024]	97.0704
CCCC/C=C/c1cncc(N(C)CCN(C)C)n1 [CBK065374]	199.751
O=C1NC2(CCCCCC2)C(=O)N1Cc1cnn(-c2ccccc2)n1 [CBK305571]	116.898
COCCN1CCN(C(=O)[C@@H]2Cc3c[nH]c4cccc(c34)[C@H](CC(C)C)N2)CC1 [CBK289419]	136.391
